Measurements reported in PubChem BioAssay AID1224830 (NIAID, 2016)
The whole screen tested about 18,000 reagents; below is a random part of them. About 2,900 of them (16%) count as active. 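Calls are made per well; low scores hint the gene aids the LPS response, high scores that it dampens it.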 Repeated entries: four replicate wells of each siRNA pool.

Screen: 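Host factors that control LPS-induced TNF expression in human macrophages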 (primary screen)
Cells: human THP-1 monocytic leukaemia cells, TNF dual-luciferase reporter clone, PMA-differentiated to macrophage-like cells
Reagent: siRNA pool against human genes, 50 nM
Duration: LPS for 4 h, given about 3 days after siRNA transfection
Challenge: bacterial LPS (TLR4 ligand), 10 ng/ml
Detection: 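Ratio of firefly to renilla light, scaled to the plate median and expressed as a robust z-score per replicate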
Scale: TNF reporter robust z-score: higher = stronger TNF reporter response to LPS
Rule for the call: 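a well is active when its z-score exceeds 2.8 or falls below -1.5; control wells carry no call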

For CALML4, how do the results read?
TNF reporter robust z-score: -0.29; Outcome: inactive

For CALML4, how do the results read?
TNF reporter robust z-score: -0.44; Outcome: inactive

Which result is listed for CALML4?
TNF reporter robust z-score: -0.81; Outcome: inactive

With CALML4, how do the results read?
TNF reporter robust z-score: -0.39; Outcome: inactive

What is on record for MDH1?
TNF reporter robust z-score: -1.17; Outcome: inactive

With MDH1, what was measured?
TNF reporter robust z-score: -0.55; Outcome: inactive

For MDH1, what does the deposit list?
TNF reporter robust z-score: -0.68; Outcome: inactive

How did the screen score MDH1?
TNF reporter robust z-score: -0.56; Outcome: inactive

With DHRS3, how do the results read?
TNF reporter robust z-score: 1.56; Outcome: inactive

For DHRS3, what was measured?
TNF reporter robust z-score: 1.27; Outcome: inactive

For DHRS3, what was measured?
TNF reporter robust z-score: 1.8; Outcome: inactive

For DHRS3, how do the results read?
TNF reporter robust z-score: 3.2; Outcome: active

What is on record for STXBP6?
TNF reporter robust z-score: -0.01; Outcome: inactive

For STXBP6, what was measured?
TNF reporter robust z-score: 0.81; Outcome: inactive

For STXBP6, what was measured?
TNF reporter robust z-score: 1.64; Outcome: inactive

What is on record for STXBP6?
TNF reporter robust z-score: 0.21; Outcome: inactive

With ZNF33A, what was measured?
TNF reporter robust z-score: 0.54; Outcome: inactive

For ZNF33A, what does the deposit list?
TNF reporter robust z-score: 0.35; Outcome: inactive

With ZNF33A, what was measured?
TNF reporter robust z-score: 0.5; Outcome: inactive

For ZNF595, what was measured?
TNF reporter robust z-score: 0.21; Outcome: inactive

With ZNF595, what does the deposit list?
TNF reporter robust z-score: -0.05; Outcome: inactive

With ZNF595, how do the results read?
TNF reporter robust z-score: 0.84; Outcome: inactive

How did the screen score ZNF595?
TNF reporter robust z-score: -0.08; Outcome: inactive

For FGD1, what was measured?
TNF reporter robust z-score: 0.8; Outcome: inactive

With FGD1, what was measured?
TNF reporter robust z-score: -0.65; Outcome: inactive

For FGD1, how do the results read?
TNF reporter robust z-score: -0.17; Outcome: inactive

How did the screen score FGD1?
TNF reporter robust z-score: 0.35; Outcome: inactive

How did the screen score KDSR?
TNF reporter robust z-score: 3.22; Outcome: active

What is on record for KDSR?
TNF reporter robust z-score: 0.91; Outcome: inactive

What is on record for KDSR?
TNF reporter robust z-score: 0.62; Outcome: inactive

What did the screen give for KDSR?
TNF reporter robust z-score: 0.06; Outcome: inactive

How did the screen score TECR?
TNF reporter robust z-score: 2.46; Outcome: inactive

What is on record for TECR?
TNF reporter robust z-score: 0.53; Outcome: inactive

For TECR, how do the results read?
TNF reporter robust z-score: 0.68; Outcome: inactive

What is on record for TECR?
TNF reporter robust z-score: 2.52; Outcome: inactive

An excerpt from the list above, for reference:
KDSR → TNF reporter robust z-score: 0.62; Outcome: inactive
KDSR → TNF reporter robust z-score: 0.06; Outcome: inactive
TECR → TNF reporter robust z-score: 2.46; Outcome: inactive
TECR → TNF reporter robust z-score: 0.53; Outcome: inactive
TECR → TNF reporter robust z-score: 0.68; Outcome: inactive
TECR → TNF reporter robust z-score: 2.52; Outcome: inactive
